Source: article PMC3115976
No constants are given. Whether binding was seen depends on the method and setting. In cells and extracts the contact can be indirect. Some binding calls cover weakened binding; strength is not graded here. For part of these data: Sequences can lack the tags named with a protein.

Chains of the proteins cited; added tags and fusions are not shown.
UniProt P43609: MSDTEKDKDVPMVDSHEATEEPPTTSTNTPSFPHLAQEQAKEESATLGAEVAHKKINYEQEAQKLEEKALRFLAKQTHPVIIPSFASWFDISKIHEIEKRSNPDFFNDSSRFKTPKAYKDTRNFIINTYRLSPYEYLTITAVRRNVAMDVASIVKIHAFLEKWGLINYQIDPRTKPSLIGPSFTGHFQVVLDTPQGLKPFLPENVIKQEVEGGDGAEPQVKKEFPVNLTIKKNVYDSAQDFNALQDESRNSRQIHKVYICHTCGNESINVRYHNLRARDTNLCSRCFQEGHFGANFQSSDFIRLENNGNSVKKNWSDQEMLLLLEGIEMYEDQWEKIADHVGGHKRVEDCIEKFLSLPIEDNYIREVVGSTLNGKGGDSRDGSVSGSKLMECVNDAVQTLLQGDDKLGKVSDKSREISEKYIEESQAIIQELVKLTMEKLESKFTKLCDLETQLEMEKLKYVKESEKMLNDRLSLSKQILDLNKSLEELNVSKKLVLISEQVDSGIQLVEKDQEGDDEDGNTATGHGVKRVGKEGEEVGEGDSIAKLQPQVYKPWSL
UniProt P43554: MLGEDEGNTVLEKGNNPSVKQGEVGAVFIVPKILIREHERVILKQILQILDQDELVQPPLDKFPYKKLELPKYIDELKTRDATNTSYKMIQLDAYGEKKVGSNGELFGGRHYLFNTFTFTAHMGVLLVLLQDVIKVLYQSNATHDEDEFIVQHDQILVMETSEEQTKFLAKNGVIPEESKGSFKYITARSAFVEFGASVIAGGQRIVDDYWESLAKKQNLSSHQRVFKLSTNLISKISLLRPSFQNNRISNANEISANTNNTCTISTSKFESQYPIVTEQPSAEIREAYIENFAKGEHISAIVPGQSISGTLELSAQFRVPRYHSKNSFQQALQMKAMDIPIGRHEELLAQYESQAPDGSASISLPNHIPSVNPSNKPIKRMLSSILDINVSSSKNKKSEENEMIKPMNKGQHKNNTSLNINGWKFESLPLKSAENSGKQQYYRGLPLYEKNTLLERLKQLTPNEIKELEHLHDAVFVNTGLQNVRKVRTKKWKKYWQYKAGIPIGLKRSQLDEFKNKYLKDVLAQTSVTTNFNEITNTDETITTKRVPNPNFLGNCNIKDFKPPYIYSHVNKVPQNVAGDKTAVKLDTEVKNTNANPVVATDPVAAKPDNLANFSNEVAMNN
UniProt P18480: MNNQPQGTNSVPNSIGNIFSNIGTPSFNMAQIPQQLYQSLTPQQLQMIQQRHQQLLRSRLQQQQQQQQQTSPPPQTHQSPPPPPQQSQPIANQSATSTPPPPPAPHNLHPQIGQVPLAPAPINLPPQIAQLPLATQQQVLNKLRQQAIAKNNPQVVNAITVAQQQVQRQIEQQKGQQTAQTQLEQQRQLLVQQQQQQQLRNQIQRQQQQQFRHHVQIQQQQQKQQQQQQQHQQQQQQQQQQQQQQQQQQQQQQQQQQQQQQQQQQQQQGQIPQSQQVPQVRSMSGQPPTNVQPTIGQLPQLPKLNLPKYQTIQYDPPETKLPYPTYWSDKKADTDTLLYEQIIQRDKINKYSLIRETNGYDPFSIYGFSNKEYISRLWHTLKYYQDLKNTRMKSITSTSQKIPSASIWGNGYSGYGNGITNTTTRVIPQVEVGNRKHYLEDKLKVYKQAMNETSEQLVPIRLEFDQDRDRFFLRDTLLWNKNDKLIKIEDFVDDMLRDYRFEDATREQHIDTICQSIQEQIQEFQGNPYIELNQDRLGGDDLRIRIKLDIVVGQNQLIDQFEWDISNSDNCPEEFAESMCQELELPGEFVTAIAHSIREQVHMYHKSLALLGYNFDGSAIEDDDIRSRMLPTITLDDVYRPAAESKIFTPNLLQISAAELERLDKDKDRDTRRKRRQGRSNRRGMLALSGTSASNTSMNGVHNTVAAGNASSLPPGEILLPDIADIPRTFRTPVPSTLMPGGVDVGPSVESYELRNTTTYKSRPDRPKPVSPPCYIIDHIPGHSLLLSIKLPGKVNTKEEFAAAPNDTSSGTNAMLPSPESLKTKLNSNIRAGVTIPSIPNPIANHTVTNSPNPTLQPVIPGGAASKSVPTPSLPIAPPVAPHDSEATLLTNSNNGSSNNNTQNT

T1: GST-Rtt106 (S. cerevisiae) (UniProt P40161)
T1 sequence: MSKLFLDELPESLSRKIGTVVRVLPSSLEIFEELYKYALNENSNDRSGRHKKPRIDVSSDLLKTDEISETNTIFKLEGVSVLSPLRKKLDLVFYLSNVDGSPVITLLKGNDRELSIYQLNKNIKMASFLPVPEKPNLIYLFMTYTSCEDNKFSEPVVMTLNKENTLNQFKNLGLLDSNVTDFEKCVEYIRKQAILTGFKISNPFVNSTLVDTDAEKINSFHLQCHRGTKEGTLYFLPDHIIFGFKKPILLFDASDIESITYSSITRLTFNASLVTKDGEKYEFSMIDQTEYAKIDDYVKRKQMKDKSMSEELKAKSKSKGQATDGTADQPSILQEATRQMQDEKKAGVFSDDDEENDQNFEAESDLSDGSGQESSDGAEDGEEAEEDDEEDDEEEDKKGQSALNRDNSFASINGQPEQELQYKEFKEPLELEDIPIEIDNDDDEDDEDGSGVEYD

T2: Rtt106-TAP (S. cerevisiae (endogenous in BY4741)) (UniProt P40161)
T2 sequence: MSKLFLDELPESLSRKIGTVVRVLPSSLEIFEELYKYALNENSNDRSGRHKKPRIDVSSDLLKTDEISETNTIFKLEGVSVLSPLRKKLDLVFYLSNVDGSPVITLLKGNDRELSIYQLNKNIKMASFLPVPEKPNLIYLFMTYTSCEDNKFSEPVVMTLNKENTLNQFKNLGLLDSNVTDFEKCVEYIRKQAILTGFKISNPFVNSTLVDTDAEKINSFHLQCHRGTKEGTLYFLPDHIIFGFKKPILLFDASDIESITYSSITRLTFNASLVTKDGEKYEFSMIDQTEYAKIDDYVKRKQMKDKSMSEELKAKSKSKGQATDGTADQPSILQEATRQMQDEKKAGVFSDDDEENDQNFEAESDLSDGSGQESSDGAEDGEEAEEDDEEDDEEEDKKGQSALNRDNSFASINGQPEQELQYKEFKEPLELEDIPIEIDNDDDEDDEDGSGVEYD


Tests used:
[1] = target: T1, GST-Rtt106 (S. cerevisiae); assay: pull-down; GST-Rtt106 on Glutathione Sepharose beads (moles equivalent to 5 ug GST) incubated with 2 mg total yeast whole cell extract protein, 2 h at 4°C; 40 mM HEPES pH 7.5, 150 mM NaCl, 0.1% Tween 20, 10% glycerol; TAP-tagged subunit detected by PAP-HRP western blot; only the target purified
[2] = target: T2, Rtt106-TAP (S. cerevisiae (endogenous in BY4741)); assay: co-IP; yeast whole cell extract, 1 mg protein, Rtt106-TAP immunoprecipitated with anti-Protein A antibody (overnight, 4°C) and Protein A beads, 50 ug/mL ethidium bromide; 40 mM HEPES pH 7.5, 150 mM NaCl, 0.1% Tween 20, 10% glycerol; Snf5-HA detected by anti-HA western blot
[3] = target: Rsc8-TAP (S. cerevisiae (endogenous in BY4741)) (UniProt P43609); assay: co-IP; yeast whole cell extracts, TAP-tagged subunit immunoprecipitated with anti-Protein A antibody (2 h) and Protein A beads, with ethidium bromide; 50 mM Tris pH 8.0, 150 mM NaCl, 1% NP40, 10% glycerol; Rtt106-HA detected by anti-HA western blot
[4] = target: Swp82-TAP (S. cerevisiae (endogenous in BY4741)) (UniProt P43554); assay: as above

| binding [1] | Molecule | further results |
| --- | --- | --- |
| binds | Hir2-TAP (from UniProt P32480 1-875) |  |
| binds | Rsc8-TAP (from UniProt P43609 1-557) |  |
|  | Snf5-HA (from UniProt P18480 1-905) | binding [2]: binds |
| binds | Swp82-TAP (from UniProt P43554 1-623) |  |
|  | Rtt106-HA (protein, UniProt P40161 1-455) MSKLFLDELPESLSRKIGTVVRVLPSSLEIFEELYKYALNENSNDRSGRHKKPRIDVSSDLLKTDEISETNTIFKLEGVSVLSPLRKKLDLVFYLSNVDGSPVITLLKGNDRELSIYQLNKNIKMASFLPVPEKPNLIYLFMTYTSCEDNKFSEPVVMTLNKENTLNQFKNLGLLDSNVTDFEKCVEYIRKQAILTGFKISNPFVNSTLVDTDAEKINSFHLQCHRGTKEGTLYFLPDHIIFGFKKPILLFDASDIESITYSSITRLTFNASLVTKDGEKYEFSMIDQTEYAKIDDYVKRKQMKDKSMSEELKAKSKSKGQATDGTADQPSILQEATRQMQDEKKAGVFSDDDEENDQNFEAESDLSDGSGQESSDGAEDGEEAEEDDEEDDEEEDKKGQSALNRDNSFASINGQPEQELQYKEFKEPLELEDIPIEIDNDDDEDDEDGSGVEYD | binding [3]: binds; binding [4]: binds |
